The record followed here is paper PMC8484663.

The assay addresses MdRNL2 (apple (Malus x domestica)). In words: affinity purification with mass spectrometry; semi-in vivo pull-down with MdRNL2 as bait, LC-MS of what was pulled down; proteins pulled down with an empty vector set aside.

No constants are given. Whether binding was seen depends on the method and setting. Binding seen in cells or lysates may run through a third protein. These calls come from enrichment with a bait or labelling near it, and not all partners need be listed.

B1: MdPR10-2 (protein, UniProt Q40280 1-159)
chain: MGVYTFENEYTSEIPPPRLFKAFVLDADNLIPKIAPQAIKHAEILEGDGGPGTIKKITFGEGSQYGYVKHKIDSVDEANYSYAYTLIEGDALTDTIEKVSYETKLVASGSGSIIKSISHYHTKGDVEIKEEHVKAGKEKAHGLFKLIESYLKGHPDAYN
On to B1, for which the binding entry was “binds”.
